# Results from patent publication US8629101B2 (priority 2007, dated 2014).
# Test: general procedure: Fmoc solid-phase peptide synthesis; Champion PEG-PS resin derivatized with Fmoc-Rink linker; HBTU/DIEA
# Conditions: lipidation step
substance,measurement,value
Ac-WMEWDREINNYTSLIHSLIEESQNQQEKNEQELLGSGC(Cholesteryl)-NH2,step yield,48%
